Laboratory results published in the supplement of paper PMC4604168 (melanoma cell lines).
The other results are listed elsewhere or left out. Repeats are few or missing, and single values can be far off.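 The apoptosis fraction was the count of cleaved-PARP antibody-stained nuclei relative to all DNA-stained nuclei, imaged in 1,536-well plates. Screening doses were set so most cells survived, and baseline and induced cleaved-PARP levels vary greatly across cell lines.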

Legend:
Assay in all cases: cleaved PARP positive nuclei fraction relative to DMSO control; melanoma cells; higher = more apoptosis
Details in all cases: library dose: low library concentration; 72 h
MZ2-MEL = test system: MZ2-MEL
MeWo = test system: MeWo
RPMI7951 = test system: RPMI7951
RVH-421 = test system: RVH-421
SkMel28 = test system: SkMel28
SkMel2 = test system: SkMel2
SkMel30 = test system: SkMel30
UACC62 = test system: UACC62
WM115 = test system: WM115
WM1716 = test system: WM1716
WM1745 = test system: WM1745
WM3526 = test system: WM3526
WM3619 = test system: WM3619
WM451Lu = test system: WM451Lu

Row | SMILES | cleaved PARP positive nuclei fraction (MZ2-MEL) [%] | cleaved PARP positive nuclei fraction (MeWo) [%] | cleaved PARP positive nuclei fraction (RPMI7951) [%] | cleaved PARP positive nuclei fraction (RVH-421) [%] | cleaved PARP positive nuclei fraction (SkMel28) [%] | cleaved PARP positive nuclei fraction (SkMel2) [%] | cleaved PARP positive nuclei fraction (SkMel30) [%] | cleaved PARP positive nuclei fraction (UACC62) [%] | cleaved PARP positive nuclei fraction (WM115) [%] | cleaved PARP positive nuclei fraction (WM1716) [%] | cleaved PARP positive nuclei fraction (WM1745) [%] | cleaved PARP positive nuclei fraction (WM3526) [%] | cleaved PARP positive nuclei fraction (WM3619) [%] | cleaved PARP positive nuclei fraction (WM451Lu) [%]
1 | Cn1cnc2c(F)c(Nc3ccc(Br)cc3Cl)c(C(=O)NOCCO)cc21 [selumetinib] + CS(=O)(=O)CCNCc1ccc(-c2ccc3ncnc(Nc4ccc(OCc5cccc(F)c5)c(Cl)c4)c3c2)o1 [lapatinib] (first compound 0.015 µM, partner dose 0.8 µM) | 243 | 131 | 141 | 165 | 218 | 199 | 107 | 241 | 177 | 57.7 | 90.6 | 158 | 148 | 55.5
2 | C[C@]1(O)C[C@@H](c2nc(-c3ccc4ccc(-c5ccccc5)nc4c3)c3c(N)nccn32)C1 + Clc1ccc(Nc2nnc(Cc3ccncc3)c3ccccc23)cc1 [vatalanib] (first compound 0.4 µM, partner dose 2 µM) | 134 | 200 | 33.6 | 82.5 | 80.7 | 164 | 21.2 | 34.3 | 116 | 115 | 117 | 21.1 | 95.1 | 51.7
3 | NC1(c2ccc(-c3nc4ccn5c(=O)[nH]nc5c4cc3-c3ccccc3)cc2)CCC1 + O=C(O)[C@@H]1[O][Sb](=[O])([O][Sb]2(=[O])[O][C@H]([C@H](O)CO)[C@H](O)[C@H](C(=O)O)[O]2)[O][C@H]([C@H](O)CO)[C@@H]1O [stibogluconate] (first compound 0.4 µM, partner dose 2 µM) | 92.6 | 127 | 83.6 | 184 | 90 | 143 | 84.3 | 87 | 153 | 197 | 211 | 202 | 99.8 | 49.2
4 | CCN(CC)CCNC(=O)c1c(C)[nH]c(/C=C2\C(=O)Nc3ccc(F)cc32)c1C [sunitinib] + C=CCNC1=C2C[C@@H](C)C[C@H](OC)[C@H](O)[C@@H](C)/C=C(\C)[C@H](OC(N)=O)[C@@H](OC)/C=C\C=C(/C)C(=O)NC(=CC1=O)C2=O [Tanespimycin] (first compound 0.4 µM, partner dose 0.002 µM) | 94 | 654 | 34.5 | 103 | 36.3 | 75.7 | 271 | 118 | 148 | 124 | 95.9 | 175 | 81.3 | 178
5 | CS(=O)(=O)c1ccc(C(=O)Nc2ccc(Cl)c(-c3ccccn3)c2)c(Cl)c1 [vismodegib] + COCC[n+]1c2c(n(Cc3cnccn3)c1C)C(=O)c1ccccc1C2=O [YM155] (first compound 1 µM, partner dose 0.0004 µM) | 4510 | 199 | 51.3 | 100 | 57.9 | 57.8 | 80.3 | 52.2 | 145 | 168 | 95.9 | 46.6 | 104 | 110
6 | Cn1cnc2c(F)c(Nc3ccc(Br)cc3Cl)c(C(=O)NOCCO)cc21 [selumetinib] + CC(C)C[C@H](NC(=O)[C@H](Cc1ccccc1)NC(=O)c1cnccn1)B(O)O [Bortezomib] (first compound 0.015 µM, partner dose 0.001 µM) | 264 | 66.7 | 30.3 | 240 | 94.8 | 200 | 121 | 183 | 153 | 55.3 | 110 | 27.4 | 269 | 101
7 | Cn1cnc2c(F)c(Nc3ccc(Br)cc3Cl)c(C(=O)NOCCO)cc21 [selumetinib] + Cn1c(=O)n(-c2ccc(C(C)(C)C#N)cc2)c2c3cc(-c4cnc5ccccc5c4)ccc3ncc21 [NVP-BEZ235] (first compound 0.015 µM, partner dose 0.004 µM) | 340 | 154 | 203 | 184 | 114 | 206 | 129 | 569 | 144 | 101 | 113 | 281 | 129 | 92.2
8 | Cn1cnc2c(F)c(Nc3ccc(Br)cc3Cl)c(C(=O)NOCCO)cc21 [selumetinib] + CCCS(=O)(=O)Nc1ccc(F)c(C(=O)c2c[nH]c3ncc(Cl)cc23)c1F [PLX4720] (first compound 0.015 µM, partner dose 0.08 µM) | 145 | 18.9 | 28.8 | 118 | 53.4 | 152 | 38.2 | 158 | 128 | 84.5 | 97.7 | 67.3 | 92.4 | 30.8
9 | COc1ccc(C2=N[C@@H](c3ccc(Cl)cc3)[C@@H](c3ccc(Cl)cc3)N2C(=O)N2CCNC(=O)C2)c(OC(C)C)c1 [Nutlin-3] + Cn1nnc2c(C(N)=O)ncn2c1=O [temozolomide] (first compound 0.1 µM, partner dose 2 µM) | 35.8 | 106 | 54.4 | 178 | 101 | 82.6 | 42.3 | 240 | 158 | 270 | 95.5 | 250 | 205 | 108
10 | COc1ccc(C2=N[C@@H](c3ccc(Cl)cc3)[C@@H](c3ccc(Cl)cc3)N2C(=O)N2CCNC(=O)C2)c(OC(C)C)c1 [Nutlin-3] + C=C(c1ccc(C(=O)O)cc1)c1cc2c(cc1C)C(C)(C)CCC2(C)C [Bexarotene] (first compound 0.1 µM, partner dose 2 µM) | 33 | 76.9 | 21.6 | 156 | 546 | 124 | 75.8 | 198 | 69.4 | 169 | 112 | 52.8 | 106 | 46.6
11 | CC1(C)CCC(c2ccc(Cl)cc2)=C(CN2CCN(c3ccc(C(=O)NS(=O)(=O)c4ccc(N[C@H](CCN5CCOCC5)CSc5ccccc5)c(S(=O)(=O)C(F)(F)F)c4)cc3)CC2)C1 + C[C@@H](N)c1ccc(C(=O)Nc2ccnc3[nH]ccc23)cc1 [RKI983] (first compound 0.4 µM, partner dose 0.4 µM) | 477 | 2840 | 432 | 419 | 163 | 222 | 184 | 249 | 314 | 3970 | 853 | 115 | 106 | 168
12 | C[C@@H](N)c1ccc(C(=O)Nc2ccnc3[nH]ccc23)cc1 + C=C(c1ccc(C(=O)O)cc1)c1cc2c(cc1C)C(C)(C)CCC2(C)C [Bexarotene] (first compound 0.4 µM, partner dose 2 µM) | 307 | 119 | 94.4 | 139 | 63.2 | 231 | 27.8 | 297 | 130 | 426 | 155 | 44.2 | 91.5 | 315
13 | C[C@]1(O)C[C@@H](c2nc(-c3ccc4ccc(-c5ccccc5)nc4c3)c3c(N)nccn32)C1 + C=CCNC1=C2C[C@@H](C)C[C@H](OC)[C@H](O)[C@@H](C)/C=C(\C)[C@H](OC(N)=O)[C@@H](OC)/C=C\C=C(/C)C(=O)NC(=CC1=O)C2=O [Tanespimycin] (first compound 0.4 µM, partner dose 0.002 µM) | 234 | 354 | 108 | 774 | 183 | 75.8 | 89.8 | 118 | 60 | 83.6 | 114 | 108 | 89.4 | 76
14 | CC(=O)O[C@@]12CO[C@@H]1C[C@H](O)[C@@]1(C)C(=O)[C@H](O)C3=C(C)[C@@H](OC(=O)[C@H](O)[C@@H](NC(=O)OC(C)(C)C)c4ccccc4)C[C@@](O)([C@@H](OC(=O)c4ccccc4)[C@H]21)C3(C)C [Docetaxel] + Nc1cccc2c1CN(C1CCC(=O)NC1=O)C2=O [lenalidomide] (first compound 0.0001 µM, partner dose 1 µM) | 666 | 469 | 492 | 49.2 | 101 | 835 | 256 | 688 | 195 | 63.9 | 175 | 151 | 119 | 105
15 | CCCCCCCCc1ccc(CCC(N)(CO)CO)cc1 [fingolimod] + Nc1nc(F)nc2c1ncn2[C@@H]1O[C@H](CO)[C@@H](O)[C@@H]1O [fludarabine] (first compound 2 µM, partner dose 0.2 µM) | 104 | 5090 | 124 | 231 | 106 | 809 | 668 | 202 | 118 | 1190 | 131 | 188 | 95.2 | 103
16 | NC1(c2ccc(-c3nc4ccn5c(=O)[nH]nc5c4cc3-c3ccccc3)cc2)CCC1 + Cn1c(Nc2ccc(C(F)(F)F)cc2)nc2cc(Oc3ccnc(-c4ncc(C(F)(F)F)[nH]4)c3)ccc21 [CHIR265] (first compound 0.4 µM, partner dose 0.08 µM) | 91.2 | 191 | 124 | 148 | 258 | 88.2 | 23.7 | 93.4 | 1960 | 316 | 116 | 264 | 113 | 49.1
17 | NC(=O)c1ccc(N(C(N)=O)c2c(F)cccc2F)nc1-c1ccc(F)cc1F + C[C@]1(c2nc3c(C(N)=O)cccc3[nH]2)CCCN1 [Veliparib] (first compound 0.4 µM, partner dose 1.4 µM) | 87.4 | 174 | 88.4 | 125 | 53.2 | 110 | 43.7 | 139 | 203 | 36.3 | 103 | 46.1 | 92.3 | 19.9
18 | CN(c1ncccc1CNc1nc(Nc2ccc3c(c2)CC(=O)N3)ncc1C(F)(F)F)S(C)(=O)=O + CC(C)C[C@H](NC(=O)[C@H](Cc1ccccc1)NC(=O)c1cnccn1)B(O)O [Bortezomib] (first compound 0.08 µM, partner dose 0.001 µM) | 126 | 49.8 | 64 | 101 | 185 | 92.7 | 36.7 | 104 | 189 | 323 | 141 | 48.5 | 426 | 54.9
19 | NC1(c2ccc(-c3nc4ccn5c(=O)[nH]nc5c4cc3-c3ccccc3)cc2)CCC1 + CC(=O)c1c(C)c2cnc(Nc3ccc(N4CCNCC4)cn3)nc2n(C2CCCC2)c1=O [palbociclib] (first compound 0.4 µM, partner dose 0.04 µM) | 2340 | 88.5 | 133 | 132 | 129 | 26.9 | 138 | 352 | 179 | 120 | 124 | 36.3 | 265 | 56.7

Single records, as listed above. Order of values: cleaved PARP positive nuclei fraction (MZ2-MEL) [%] | cleaved PARP positive nuclei fraction (MeWo) [%] | cleaved PARP positive nuclei fraction (RPMI7951) [%] | cleaved PARP positive nuclei fraction (RVH-421) [%] | cleaved PARP positive nuclei fraction (SkMel28) [%] | cleaved PARP positive nuclei fraction (SkMel2) [%] | cleaved PARP positive nuclei fraction (SkMel30) [%] | cleaved PARP positive nuclei fraction (UACC62) [%] | cleaved PARP positive nuclei fraction (WM115) [%] | cleaved PARP positive nuclei fraction (WM1716) [%] | cleaved PARP positive nuclei fraction (WM1745) [%] | cleaved PARP positive nuclei fraction (WM3526) [%] | cleaved PARP positive nuclei fraction (WM3619) [%] | cleaved PARP positive nuclei fraction (WM451Lu) [%]
CC(=O)O[C@@]12CO[C@@H]1C[C@H](O)[C@@]1(C)C(=O)[C@H](O)C3=C(C)[C@@H](OC(=O)[C@H](O)[C@@H](NC(=O)OC(C)(C)C)c4ccccc4)C[C@@](O)([C@@H](OC(=O)c4ccccc4)[C@H]21)C3(C)C [Docetaxel] + Nc1cccc2c1CN(C1CCC(=O)NC1=O)C2=O [lenalidomide] (first compound 0.0001 µM, partner dose 1 µM) is listed as 666 | 469 | 492 | 49.2 | 101 | 835 | 256 | 688 | 195 | 63.9 | 175 | 151 | 119 | 105
Cn1cnc2c(F)c(Nc3ccc(Br)cc3Cl)c(C(=O)NOCCO)cc21 [selumetinib] + CCCS(=O)(=O)Nc1ccc(F)c(C(=O)c2c[nH]c3ncc(Cl)cc23)c1F [PLX4720] (first compound 0.015 µM, partner dose 0.08 µM) is listed as 145 | 18.9 | 28.8 | 118 | 53.4 | 152 | 38.2 | 158 | 128 | 84.5 | 97.7 | 67.3 | 92.4 | 30.8
